Laboratory results as given in patent publication US20220154183A1, “CHMP2A as a Regulator of Natural Killer Cell-Mediated Activity” (The Regents of the University of California, priority 2019, published 2022).
For at least one compound, name, drawing or mass did not settle the structure.

What was measured:
Cal27 wild type cells = test: Casp3/7 plus SytoxAAD NK killing assay on Tipifarnib treated Cal27 cells; type: cell-based; conditions: 1 μM Tipifarnib for 72 hours, control DMSO
[1] = test system: ESCRTIII-dependent pathway; conditions: acting on the ESCRTIII-dependent pathway; reference 16; cited from earlier work

Cn1cncc1[C@@](N)(c1ccc(Cl)cc1)c1ccc2c(c1)c(-c1cccc(Cl)c1)cc(=O)n2C [Tipifarnib]
sensitivity to NK cell-mediated killing (Cal27 wild type cells): increased sensitivity to NK cells mediated killing | release of EV and exosomes [1]: inhibit the release of EV and exosomes
